PubChem BioAssay AID686937 – Drosophila RNAi Screening Center – 2013

Test: 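Knock-downs that reduce output of a secreted reporter enzyme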 (primary screen)
Cells: Drosophila S2 cells expressing secreted horseradish peroxidase
Knock-down reagent: long dsRNA against Drosophila genes
Duration: about 5.5 days (5 days dsRNA, then 12 h reporter induction)
Challenge: reporter expression induced after 5 days of dsRNA, read 12 h later; inducer not stated
Measurement: 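Chemiluminescent measurement of peroxidase in the medium 12 h after reporter induction, following 5 days of dsRNA, given as a z-score per plate; higher means more secretion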
Scale: z-score: higher = more reporter secreted into medium
In all, the deposit lists about 23,000 reagents; shown is a random part of those with a known target gene and a result. 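Reduced-secretion tags in replicate 1 do not always agree with the z-scores; no criterion for assigning the tags was given.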 A plus sign joins genes that one reagent is predicted to hit. Not stated in the record: the amount of reagent.

| Gene | DRSC id | z-score, replicate 1 | z-score, replicate 2 | z-score, replicate 3 | z-score, replicate 4 | phenotype, replicate 1 |
| --- | --- | --- | --- | --- | --- | --- |
| gro | DRSC16962 | 0.24 | 0.33 | – | – | – |
| Bin1 | DRSC16843 | 0.49 | 0.59 | – | – | – |
| RpLP2 | DRSC07539 | -5.25 | -1.84 | – | – | reduced secretion |
| Or65b | DRSC08809 | 0.32 | 0.49 | – | – | – |
| CG7800 | DRSC16315 | 0.35 | 0.69 | – | – | – |
| ND-15 | DRSC00311 | 0.1 | 0.13 | – | – | – |
| RhoGAP68F | DRSC10717 | 0.38 | 0.5 | – | – | – |
| CG1941 | DRSC06802 | 0.09 | 0.26 | – | – | – |
| CG13127 | DRSC02223 | -0.49 | 0.06 | – | – | – |
| Moca-cyp | DRSC15364 | 0.41 | 0.49 | – | – | – |
| CG42355 | DRSC07967 | -1.78 | 0.07 | – | – | reduced secretion |
| mus301 | DRSC10939 | 0.27 | -0.39 | – | – | – |
| CG17490 | DRSC03794 | 0.16 | 0.14 | – | – | – |
| CG17490 | DRSC03797 | -0.08 | 0 | – | – | – |
| Peritrophin-15b | DRSC02266 | 0.28 | 0.22 | – | – | – |
| Rad23 | DRSC17167 | 0.23 | 0.15 | – | – | – |
| Indy | DRSC10393 | 0.31 | 0.19 | – | – | – |
| Rexo5 | DRSC10981 | -0.17 | 0.11 | – | – | – |
| Rbcn-3A | DRSC18314 | 0.44 | 0.49 | – | – | – |
| UQCR-11L | DRSC22166 | -0.95 | -0.09 | – | – | – |
| CG34280 | DRSC13229 | 0.31 | -0.05 | – | – | – |
| CG13102 | DRSC02202 | 0.07 | -0.49 | – | – | – |
| CG31915 | DRSC03000 | 0.24 | 0.2 | – | – | – |
| CG15482 | DRSC02492 | 0.37 | 0.41 | – | – | – |
| CR31824 | DRSC01517 | 0.31 | 0.3 | – | – | – |
| ATPsynbeta | DRSC17194 | -0.6 | -0.42 | – | – | – |
| CG12147 | DRSC12192 | 0.42 | 0.48 | – | – | – |
| Dtwd2 | DRSC12501 | 0.4 | 0.1 | – | – | – |
| CG5292 | DRSC15763 | 0.34 | -0.02 | – | – | – |

Already shown: 4 of the entries above.
| Gene | DRSC id | z-score, replicate 1 | z-score, replicate 2 | z-score, replicate 3 | z-score, replicate 4 | phenotype, replicate 1 |
| --- | --- | --- | --- | --- | --- | --- |
| ND-15 | DRSC00311 | 0.1 | 0.13 | – | – | – |
| RhoGAP68F | DRSC10717 | 0.38 | 0.5 | – | – | – |
| CG1941 | DRSC06802 | 0.09 | 0.26 | – | – | – |
| CG13127 | DRSC02223 | -0.49 | 0.06 | – | – | – |

Further entries follow:
| Gene | DRSC id | z-score, replicate 1 | z-score, replicate 2 | z-score, replicate 3 | z-score, replicate 4 | phenotype, replicate 1 |
| --- | --- | --- | --- | --- | --- | --- |
| CG14971 | DRSC08430 | 0.01 | 0.45 | – | – | – |
| CG14325 | DRSC14804 | 0.39 | 0.14 | – | – | – |
| mew | DRSC18971 | 0.13 | 0.58 | – | – | – |
| mew | DRSC20352 | 0.17 | 0.28 | – | – | – |
| CG6937 + btn | DRSC16917 | 0.3 | 0.37 | – | – | – |
| CG17562 | DRSC15243 | 0.65 | 0.14 | – | – | – |
| CG3224 | DRSC18295 | 0.11 | 0.15 | – | – | – |
| Srrm1 | DRSC09835 | 0.14 | 0.08 | – | – | – |
| lwr | DRSC00828 | 0.09 | 0.26 | – | – | – |
| Pfrx | DRSC18856 | 0.54 | 0.23 | – | – | – |
| Pfrx | DRSC19315 | 0.09 | -0.2 | – | – | – |
| PyK | DRSC16806 | 0.3 | 0.33 | – | – | – |
| Fic | DRSC03247 | 0.04 | 0.14 | – | – | – |
| Rph | DRSC17790 | 0.5 | 0.7 | – | – | – |
| Sec6 | DRSC06932 | 0.34 | 0.45 | – | – | – |
| exu | DRSC07615 | 0.55 | 0.18 | – | – | – |
| msl-3 | DRSC11371 | 0.56 | 0.12 | – | – | – |
| Obp73a | DRSC09907 | 0.11 | 0.31 | – | – | – |
| LanB2 | DRSC11208 | 0.19 | 0.2 | – | – | – |
| CG3222 | DRSC10355 | 0.23 | 0.24 | – | – | – |
| CG12523 | DRSC09895 | 0.53 | 0.22 | 0.48 | 0.64 | – |
| Creld | DRSC00308 | 0.27 | 0.35 | – | – | – |
| CG14297 | DRSC14776 | 0.13 | -0.21 | – | – | – |
| CG13877 + pyx | DRSC08347 | 0.43 | 0.21 | – | – | – |
| osi | DRSC02931 | 0.41 | 0.32 | 0.17 | 0.35 | – |
| Ir94f | DRSC13621 | 0.37 | 0.31 | – | – | – |
| CG13203 | DRSC06327 | 0.28 | 0.07 | – | – | – |
